Experimental data: article PMC11626146
No constants are given. Whether binding was seen depends on the method and setting. In cells and extracts the contact can be indirect. Some binding calls cover weakened binding; strength is not graded here.

Target: T1, Beclin1 (BECN1) (mouse (endogenous in small intestinal epithelial cells)), O88597
T1 chain: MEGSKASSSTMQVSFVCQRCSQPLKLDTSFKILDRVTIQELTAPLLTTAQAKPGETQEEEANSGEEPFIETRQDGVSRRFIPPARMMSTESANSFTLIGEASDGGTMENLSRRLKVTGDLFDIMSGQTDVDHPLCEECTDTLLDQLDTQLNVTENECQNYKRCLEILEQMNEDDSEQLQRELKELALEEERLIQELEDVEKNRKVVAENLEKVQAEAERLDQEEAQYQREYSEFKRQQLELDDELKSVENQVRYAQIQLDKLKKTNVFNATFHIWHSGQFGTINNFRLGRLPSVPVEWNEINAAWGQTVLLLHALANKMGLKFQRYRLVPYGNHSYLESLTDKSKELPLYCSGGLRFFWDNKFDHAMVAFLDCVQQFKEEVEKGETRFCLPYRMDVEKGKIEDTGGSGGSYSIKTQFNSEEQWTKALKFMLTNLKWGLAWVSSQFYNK
Assay: co-IP; small intestinal epithelial cell lysates (T-PER, 5 mg/mL) from uninfected or S. Typhimurium-infected (24 h) germ-free wild-type and Myd88-/- mice; immunoprecipitated with mouse anti-BECN1 on Protein A agarose at 4 °C, washed three times with T-PER, blotted with anti-BCL2-HRP and rabbit anti-BECN1
Conditions: remark: other sources report otherwise

B1: B cell lymphoma 2 (BCL2), P10417 1-236 (protein)
chain: MAQAGRTGYDNREIVMKYIHYKLSQRGYEWDAGDADAAPLGAAPTPGIFSFQPESNPMPAVHRDMAARTSPLRPLVATAGPALSPVPPVVHLTLRRAGDDFSRRYRRDFAEMSSQLHLTPFTARGRFATVVEELFRDGVNWGRIVAFFEFGGVMCVESVNREMSPLVDNIALWMTEYLNRHLHTWIQDNGGWDAFVELYGPSMRPLFDFSWLSLKTLLSLALVGACITLGAYLGHK
binding: binds
